Library screen at single concentrations

Amino acid sequences for entries named in this document (tags omitted). Residues count along the entry.
UniProt I6X8D2, whole entry: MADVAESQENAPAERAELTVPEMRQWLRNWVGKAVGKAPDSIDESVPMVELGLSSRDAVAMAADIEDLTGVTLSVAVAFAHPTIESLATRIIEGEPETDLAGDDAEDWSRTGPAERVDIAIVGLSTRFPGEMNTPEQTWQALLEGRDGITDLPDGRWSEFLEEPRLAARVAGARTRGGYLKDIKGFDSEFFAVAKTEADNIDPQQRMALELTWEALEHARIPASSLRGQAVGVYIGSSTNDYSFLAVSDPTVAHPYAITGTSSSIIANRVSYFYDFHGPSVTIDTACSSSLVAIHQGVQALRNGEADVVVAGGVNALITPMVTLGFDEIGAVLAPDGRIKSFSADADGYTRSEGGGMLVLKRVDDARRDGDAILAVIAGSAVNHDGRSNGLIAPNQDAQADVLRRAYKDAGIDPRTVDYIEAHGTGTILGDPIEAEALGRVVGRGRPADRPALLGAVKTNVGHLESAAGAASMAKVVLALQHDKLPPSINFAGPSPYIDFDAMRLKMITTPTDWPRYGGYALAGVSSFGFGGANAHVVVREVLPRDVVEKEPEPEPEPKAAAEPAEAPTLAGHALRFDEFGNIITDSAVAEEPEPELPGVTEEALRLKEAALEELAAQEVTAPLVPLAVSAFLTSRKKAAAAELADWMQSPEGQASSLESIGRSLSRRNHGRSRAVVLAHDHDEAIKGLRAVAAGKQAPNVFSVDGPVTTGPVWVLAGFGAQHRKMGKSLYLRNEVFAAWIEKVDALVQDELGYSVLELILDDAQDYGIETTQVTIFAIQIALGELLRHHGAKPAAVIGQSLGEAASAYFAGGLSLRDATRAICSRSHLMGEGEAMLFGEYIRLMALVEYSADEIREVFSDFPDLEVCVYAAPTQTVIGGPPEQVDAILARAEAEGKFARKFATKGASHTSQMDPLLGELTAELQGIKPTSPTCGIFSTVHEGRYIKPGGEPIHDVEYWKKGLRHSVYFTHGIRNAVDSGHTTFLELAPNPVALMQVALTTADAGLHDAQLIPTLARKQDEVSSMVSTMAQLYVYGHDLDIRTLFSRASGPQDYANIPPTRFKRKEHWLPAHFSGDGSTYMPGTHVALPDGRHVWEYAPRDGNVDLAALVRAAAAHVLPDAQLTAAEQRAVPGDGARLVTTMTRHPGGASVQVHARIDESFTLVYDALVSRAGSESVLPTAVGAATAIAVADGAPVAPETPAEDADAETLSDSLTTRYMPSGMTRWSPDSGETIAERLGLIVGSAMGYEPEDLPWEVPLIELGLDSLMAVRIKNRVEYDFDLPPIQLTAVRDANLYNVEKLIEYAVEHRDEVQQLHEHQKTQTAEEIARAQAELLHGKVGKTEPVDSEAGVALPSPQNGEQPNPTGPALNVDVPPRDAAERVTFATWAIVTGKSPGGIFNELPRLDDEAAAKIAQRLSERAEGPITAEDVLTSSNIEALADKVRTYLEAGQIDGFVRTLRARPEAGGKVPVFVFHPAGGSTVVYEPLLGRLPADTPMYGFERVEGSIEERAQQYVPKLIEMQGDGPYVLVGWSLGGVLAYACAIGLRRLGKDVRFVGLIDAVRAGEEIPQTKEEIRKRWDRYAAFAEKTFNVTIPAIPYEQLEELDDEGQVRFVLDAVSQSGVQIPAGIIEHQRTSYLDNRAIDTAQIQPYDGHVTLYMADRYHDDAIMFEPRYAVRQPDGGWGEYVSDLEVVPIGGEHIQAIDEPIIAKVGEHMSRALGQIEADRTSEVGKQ
UniProt Q4DA54, 1-478: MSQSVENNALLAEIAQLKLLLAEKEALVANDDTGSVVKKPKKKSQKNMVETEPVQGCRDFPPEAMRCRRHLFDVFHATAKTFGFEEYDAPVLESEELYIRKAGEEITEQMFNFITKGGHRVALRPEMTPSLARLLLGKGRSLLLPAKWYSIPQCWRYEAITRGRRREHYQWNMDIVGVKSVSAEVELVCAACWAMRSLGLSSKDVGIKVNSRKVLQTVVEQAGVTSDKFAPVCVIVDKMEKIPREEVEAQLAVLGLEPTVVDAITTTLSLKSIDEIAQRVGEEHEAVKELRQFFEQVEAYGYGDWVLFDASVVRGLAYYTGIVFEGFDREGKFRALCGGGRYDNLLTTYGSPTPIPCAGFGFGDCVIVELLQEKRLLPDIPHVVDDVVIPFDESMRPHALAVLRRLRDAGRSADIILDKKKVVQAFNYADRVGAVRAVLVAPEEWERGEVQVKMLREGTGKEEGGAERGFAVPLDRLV

Pks13 thioesterase: 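Enzyme assay of the thioesterase domain of polyketide synthase 13; the read-out is not stated. Target: Polyketide synthase Pks13, Mycobacterium tuberculosis (UniProt I6X8D2). Concentration: 30 µM. Higher reads as stronger inhibition (inferred from which compounds were picked for retests). About 67,000 compounds were tested under these conditions; 0.46% (about 300) showed 50% or more at least once.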
TcHisRS: 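Histidine-tRNA ligase, Trypanosoma cruzi CL Brener (UniProt Q4DA54). Enzyme assay of histidyl-tRNA synthetase; the read-out is not stated. Concentration: 30 µM. Direction is inferred from retests: higher values go with stronger inhibition. Of about 69,000 compounds tested this way, about 31 (0.045%) reached 50% or more in at least one test.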

Each number is a percent effect as filed. The record does not define 0% and 100%; most values in the screen are far below 50% and negative numbers occur (in some assays of this library far below -100). This is an unselected part of the compounds tested. A dash means the value is not listed here; it may have been measured.

structure,Pks13 thioesterase,TcHisRS
CN1CCN(c2ccncc2S(=O)(=O)N2CCCCC2)CC1,-25.15%,0%
COc1ccccc1CN(Cc1nc(CC(C)C)no1)C1CC1,2.336%,1.493%
Cc1nc(-c2cc(Cl)cc3c2OC(CN)C3)c[nH]1 (stereo unspecified),12.5%,22.35%
COc1ccc(C(=O)N(Cc2cnn(C)c2)C(C)C)cc1OC(F)F,-4.964%,4.624%
COc1c(F)cc(CN2CCC3(CC2)C(C(=O)O)CC(=O)N3C)cc1Cl (stereo unspecified),-31.65%,4.372%
CC1(C)CN(S(=O)(=O)N2CCOCC2)CC1c1ccccc1 (stereo unspecified),18.74%,3.865%
Cc1noc(C)c1CNC(=O)Nc1ccc(N2CCOC2=O)cc1,-4.361%,6.931%
Cc1c(Cl)c(C(=O)NCc2ccc(F)cc2)nn1C,-29.12%,6.186%
Cc1c(CNCC(C)Oc2cccnc2)c2ccccc2n1CC(N)=O (stereo unspecified),10.2%,-1.093%
COc1ccc(CC(=O)N2CCCC2Cn2cccn2)cc1F (stereo unspecified),-10.09%,5.303%
Cc1noc([C@@H]2CC[C@@H]3[C@@H](CCN3c3nnc(C)s3)O2)n1,-2.541%,1.105%
Cn1cc(C(=O)CC2CCCN2C(=O)c2ccc(Cl)o2)cn1 (stereo unspecified),-0.5646%,-0.6024%
CCN1CC(C(=O)N2CCC(Oc3ccccc3C)CC2)CC1=O (stereo unspecified),-6.323%,3.306%
O=S(=O)(C1CC1)N1CCC2(CCCN(Cc3ccccn3)C2)CC1,4.066%,8.889%
CC(=O)Nc1ccc(-n2cncn2)c(F)c1,-15.64%,0.5882%
N#Cc1cc(S(N)(=O)=O)ccc1N1CCc2c(Cl)cccc2C1,-11.84%,-5.357%
Cc1cccc(CN2CCN3C(=O)NC[C@H]3C2)n1,1.946%,4.478%
CCS(=O)(=O)N1CCC2(CC1)CN(c1cncnc1)C(=O)CO2,-1.834%,0%
COCCNC(=O)NC(C)COc1ccc(F)cc1F (stereo unspecified),-13.1%,1%
CSCC(C)N(C)C(=O)CN1CCN(c2ccccn2)CC1 (stereo unspecified),-6.652%,4.819%
COc1cc(CC2CC(c3ccc4c(c3)OCO4)=NO2)cc2c1OCO2 (stereo unspecified),36.37%,-28.71%
CC1(C)CC(N2Cc3nc(N4CCOCC4)ncc3C2=O)CC(C)(C)N1,-8.955%,4.184%
CCOCC1CN(Cc2ccncc2)Cc2nn(C)cc21 (stereo unspecified),-14.85%,7.438%
CC(=O)N1CCC(c2cc3c(ncn3C)c(-c3cnn(C)c3)n2)CC1,-30.3%,7.362%
CC1CN(C)CCN1C(=O)NCCCn1ccnc1 (stereo unspecified),-9.271%,8.427%
CNC(=O)CC1CCN(Cc2nc(-c3cccc(Cl)c3)oc2C)CC1,-26.94%,8.333%
O=C(c1ccncc1)N(CCO)Cc1cc(Br)ccc1F,-14.94%,10.31%
Cc1cnn(C2CCCN(C(=O)c3ccccc3-n3cnnn3)C2)c1 (stereo unspecified),-21.62%,2.053%
Cc1nc(N2CCN(C)CC2)ncc1C(=O)N1CCCCCC1,-10.08%,9%
O=C(Nc1ccccc1)C1=NOC2(CCCN(C(=O)N3CCCC3)C2)C1 (stereo unspecified),-45.79%,3.738%
O=C(Cc1ccccn1)N1CCN(C(=O)c2cccc3[nH]ncc23)CC1,-2.741%,1.88%
Cn1cncc1CN1CCOC(Cc2ccccc2)C1 (stereo unspecified),-8.632%,10.08%
Cc1nc(O)ccc1C(=O)NCc1ncoc1C,-31.31%,4.972%
CC(C)S(=O)(=O)NCC(Cc1cccc(F)c1)N1CCNC1=O (stereo unspecified),-8.089%,2.41%
Cc1cnn(C2CN(Cc3noc(C4CC4)n3)C2)c1,-25.2%,4.762%
Cc1cc(O)cc(=O)n1CCCC(=O)Nc1n[nH]c2cc(Br)ccc12,-5.363%,10%
CCC(NC(=O)NCc1cccc(N(C)C)n1)c1ccccc1OC (stereo unspecified),1.798%,4.969%
Cc1ccc(N2C[C@@H]3OCCN(CC4CC4)[C@@H]3C2)nn1,0.2704%,5.556%
CCC(CO)N(C/C(C)=C/c1ccco1)Cc1ccsc1 (stereo unspecified),-17.54%,5.579%
COc1ccc(N(C(=O)Cc2ccc(C)nc2)C(C)C)cc1F,-26.96%,8.287%
O=C(O)Cn1nc(-c2ccccc2F)ccc1=O,1.618%,6%
CN(C)Cc1nc2c(o1)CN(C(=O)c1ccncc1F)C2,-10.55%,9.278%
COc1ccc(Cl)cc1NC(=O)N(C)CC(O)COCCOC(C)C (stereo unspecified),-48.85%,8.021%
Cc1nc(CN(C)C2CCN(Cc3cccc4cccnc34)C2)no1 (stereo unspecified),23.08%,11.88%
OCc1ccc(OCC(F)(F)F)cc1,-13.1%,6.494%
Cc1cc(=O)n2ncnc2n1CC(O)c1ccc(F)cc1F (stereo unspecified),-12.98%,-0.9804%
CC(=O)NCc1ccc(C(=O)Nc2ccc3c(c2)C(=O)NC3)cc1,-38.3%,7.328%
CCn1nc2c(cc1=O)CN(CC(=O)Nc1cc(C)no1)CC2,-21.23%,-3.175%
Cc1ccc(C(=O)Nc2ccc(S(=O)(=O)/N=C3\CCCN3C)cc2)s1,-29.17%,3.704%
Cc1ccc2nc(C3CCCN3Cc3csc(C)n3)[nH]c2c1 (stereo unspecified),-43.55%,7.821%
c1cc(-c2nc(CN3CCc4c(ncn4C4CC4)C3)cs2)cs1,-19.53%,19.65%
CN(C)c1ccc(C(=O)Nc2cnn(Cc3ccccn3)c2)cc1,-9.268%,9.524%
CC(C)N1CCCCC1CCn1cnc2cc(C(F)(F)F)ccc2c1=O (stereo unspecified),-11.51%,3.96%
N#Cc1ccc(N2CCCN(c3nccs3)CC2)nc1,8.999%,3.665%
Cn1ccnc1C(NCc1ccc(Br)cc1)c1ccccc1 (stereo unspecified),-19.28%,7.289%
Cc1cc(C(=O)Nc2ccc(CN3CCOCC3)cn2)n(C)n1,-29.57%,3.448%
COC(=O)c1cccn1C1CCN(C(=O)c2cn[nH]c2C)CC1,-10.09%,-1.527%
CN1CCc2c(C#N)c(NCc3ccco3)n3cnnc3c2C1,-8.83%,1.087%
Cc1cnc(N2C[C@H]3CCCC(N(C)Cc4ccccn4)[C@H]3C2)nc1 (stereo partly specified),3.215%,9.278%
CNc1cc(-c2ccccc2CN)c2cc[nH]c2n1,28.09%,40.24%
Cc1cnc(C)c(N2C[C@H]3OC(=O)N(C4CCCC4)[C@H]3C2)n1,-62.21%,2%
CC(C(=O)N1CCOCC1)n1cc(Br)cn1 (stereo unspecified),-24%,-0.8696%
O=C([C@H]1COC[C@H]2CN(C3CCCC3)C[C@H]21)N1CCCO1,21.45%,6.468%
CC(CNC(=O)CCn1cncn1)N1CCc2ccccc21 (stereo unspecified),-16.68%,4.762%
Cc1ncsc1CCC(=O)NCc1cc2n(n1)CCN(C(=O)N(C)C)C2,-6.608%,4.065%
CCNc1cc2c(nn1)CCN(C(=O)c1ccnc(N(C)C)c1)C2,9.266%,2.662%
N#CCCN(Cc1ccco1)C(=O)Cc1ccc(-n2cnnn2)cc1,2.269%,8.621%
CC(C)NC(=O)N1CCN(CC2CC2)CC2(CC(=O)N(C)C2)C1 (stereo unspecified),-0.4022%,2.674%
CN1CC2(CCN(C(=O)c3ccc(-n4cccn4)cc3Cl)C2)OC1=O (stereo unspecified),-12.76%,5.6%
Cc1cnc(C)c(Oc2ccc(CN3CCCC3)cc2Cl)n1,-,0%
CCCn1nc(-c2nc(COC)no2)ccc1=O,5.405%,6.897%
CC(C)NC(=O)c1cc(Br)c2c(c1)OCCO2,-11.15%,2.825%
COc1cccc(C2SCC(=O)Nc3ccsc32)c1OC (stereo unspecified),-60.69%,1.136%
COc1c(CNCCNC(=O)c2ccccc2F)c(C)nn1C,-8.418%,5.263%
CC(C)c1nc(C2CCCN2CCNS(C)(=O)=O)no1 (stereo unspecified),-5.03%,1.493%
Cc1ccc(CN2Cc3ccccc3O[C@]3(CC[C@H](CO)CC3)C2)o1,-8.984%,4.444%
Cn1cc(C2=NOC(C(=O)NC3(c4ccccc4F)CCCC3)C2)cn1 (stereo unspecified),-19.2%,-1.149%
Cc1cc(-c2ccccc2C(=O)O)nc(C2CCCCN2C)n1 (stereo unspecified),-,10%
O=C(Cc1noc2ccccc12)N1CCCC1c1noc(C2CC2)n1 (stereo unspecified),-9.865%,2.256%
CCNC(=O)C1CCN(Cc2ccc(C(=O)Nc3nnc(C)s3)cc2)C1 (stereo unspecified),8.735%,7.035%

4 of the entries, repeated:

{"structure": "Cc1c(CNCC(C)Oc2cccnc2)c2ccccc2n1CC(N)=O", "stereo": "stereo unspecified", "Pks13 thioesterase": 10.2, "TcHisRS": -1.093}
{"structure": "Cc1nc(O)ccc1C(=O)NCc1ncoc1C", "Pks13 thioesterase": -31.31, "TcHisRS": 4.972}
{"structure": "CC(C)N1CCCCC1CCn1cnc2cc(C(F)(F)F)ccc2c1=O", "stereo": "stereo unspecified", "Pks13 thioesterase": -11.51, "TcHisRS": 3.96}
{"structure": "CC(C)NC(=O)c1cc(Br)c2c(c1)OCCO2", "Pks13 thioesterase": -11.15, "TcHisRS": 2.825}

Measurements from “University of Dundee, Small-Polar-MMV Screening Library” (2021), ChEMBL document CHEMBL3988442.